One test has as its target T1, GST-SXL (UniProt P19339).
T1 sequence: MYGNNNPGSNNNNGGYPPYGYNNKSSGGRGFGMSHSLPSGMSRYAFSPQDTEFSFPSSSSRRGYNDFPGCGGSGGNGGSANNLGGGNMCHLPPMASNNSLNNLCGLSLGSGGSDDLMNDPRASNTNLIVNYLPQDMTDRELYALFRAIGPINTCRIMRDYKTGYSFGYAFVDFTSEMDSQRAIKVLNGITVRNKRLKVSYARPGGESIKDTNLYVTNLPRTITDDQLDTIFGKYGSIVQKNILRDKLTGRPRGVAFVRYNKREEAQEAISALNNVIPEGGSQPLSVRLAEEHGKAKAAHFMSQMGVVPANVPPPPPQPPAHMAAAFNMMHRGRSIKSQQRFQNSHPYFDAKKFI
Nature of the test: pull-down; GST-PTB or GST-SXL as bait; MS2 fusion peptides transcribed and translated in vitro; RNase A 25 ug/ml after translation and 0.5 ug/ml in the pre-incubation, 3 h at 4°C; only the target purified.

Amino acid sequences for entries named in this document (tags omitted).
UniProt P03612: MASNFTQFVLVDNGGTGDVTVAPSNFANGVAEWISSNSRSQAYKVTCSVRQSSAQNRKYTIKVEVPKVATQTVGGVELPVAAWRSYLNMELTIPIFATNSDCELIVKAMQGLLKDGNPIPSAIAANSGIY
UniProt P26599: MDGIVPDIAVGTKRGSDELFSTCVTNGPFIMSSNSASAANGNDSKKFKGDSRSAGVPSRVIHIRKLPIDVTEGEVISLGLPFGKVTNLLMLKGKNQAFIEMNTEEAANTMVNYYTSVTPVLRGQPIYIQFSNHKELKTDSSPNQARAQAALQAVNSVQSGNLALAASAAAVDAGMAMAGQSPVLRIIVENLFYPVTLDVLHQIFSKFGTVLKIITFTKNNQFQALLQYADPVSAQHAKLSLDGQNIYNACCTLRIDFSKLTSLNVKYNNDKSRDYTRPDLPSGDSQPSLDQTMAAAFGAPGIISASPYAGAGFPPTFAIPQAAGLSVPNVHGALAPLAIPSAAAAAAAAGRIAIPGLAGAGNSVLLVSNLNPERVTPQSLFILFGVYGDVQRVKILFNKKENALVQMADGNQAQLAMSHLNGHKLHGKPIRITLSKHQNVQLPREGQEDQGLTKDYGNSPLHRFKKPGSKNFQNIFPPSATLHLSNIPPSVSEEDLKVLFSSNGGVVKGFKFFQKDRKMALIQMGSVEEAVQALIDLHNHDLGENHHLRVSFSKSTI

Test [1] addresses T2, FLAG-Raver1 full-length wild-type (UniProt Q9CW46).
T2 sequence: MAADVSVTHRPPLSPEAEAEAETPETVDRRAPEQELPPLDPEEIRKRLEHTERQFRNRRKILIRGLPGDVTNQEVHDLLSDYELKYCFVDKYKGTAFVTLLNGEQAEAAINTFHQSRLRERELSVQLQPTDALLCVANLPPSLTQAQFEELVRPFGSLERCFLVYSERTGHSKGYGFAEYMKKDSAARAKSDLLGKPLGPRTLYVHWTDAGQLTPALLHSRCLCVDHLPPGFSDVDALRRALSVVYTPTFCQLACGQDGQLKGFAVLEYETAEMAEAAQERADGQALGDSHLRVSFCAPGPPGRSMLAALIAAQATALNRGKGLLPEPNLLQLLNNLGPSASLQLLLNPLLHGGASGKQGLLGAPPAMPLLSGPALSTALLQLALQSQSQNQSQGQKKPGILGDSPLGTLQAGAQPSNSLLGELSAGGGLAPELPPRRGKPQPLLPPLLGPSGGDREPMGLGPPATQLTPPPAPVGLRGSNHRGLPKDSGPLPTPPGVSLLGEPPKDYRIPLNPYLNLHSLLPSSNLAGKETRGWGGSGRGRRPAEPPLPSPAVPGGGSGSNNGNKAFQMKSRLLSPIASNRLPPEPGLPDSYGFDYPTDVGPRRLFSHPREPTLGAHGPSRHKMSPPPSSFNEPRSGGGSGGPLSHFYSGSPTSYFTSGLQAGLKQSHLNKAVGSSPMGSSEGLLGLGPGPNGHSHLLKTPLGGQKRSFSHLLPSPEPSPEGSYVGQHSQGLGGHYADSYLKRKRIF
The experiment in a line: co-IP; FLAG-tagged proteins transfected, cells lysed 48 h later; anti-FLAG (Sigma M2) with protein G sepharose, 2 h at 4°C; Western blot against PTB.

No constants are given. Whether binding was seen depends on the method and setting. Binding seen in cells or lysates may run through a third protein. Some entries that bind do so weakly or less than the wild type. Where a sequence is shown, tags or fusion partners need not be part of it.

“MS2 alone (FLAG-MS2) (from UniProt P03612 1-130)”: the binding result with GST-SXL is “no binding”.
As for “PTB (endogenous, lysate of transfected cells) (from UniProt P26599 1-557)”, the binding entry in test [1] is given as “binds”.

Source of the values: article PMC4365034.
